Measurements from PubChem BioAssay AID2685 (National Center for Advancing Translational Sciences (NCATS), 2010).
Among all 320,000 compounds or so, about 2,100 (0.66%) were called active. The inconclusive results got no clear call from the source; some entries with a clear call stand among them for comparison. Calls follow the shape of the dose curve; as a rule, active = well fitted inhibition curve with a large enough effect in the signal ratio, with a control signal flat (not every such curve was filed as active); inconclusive = small, poorly fitted or top-dose-only effect, or effect the other way, or a change in a side signal; inactive = flat fitted curve, though single readings scatter; the % refers to the signal ratio. Potencies beside an inconclusive call are fits to weak or partial responses and may not hold up.
% is scaled to controls: 0 for no effect and ±100 for the full control effect; potency is read from the fitted curve at half-maximal effect.

Assay: qHTS Assay for Lipid Storage Modulators in Drosophila S3 Cells
Conditions: BODIPY lipid droplet fluorescence, 18-24 h, cells fed with added oleic acid; lipid storage change, negative = inhibition: at 46.1 µM (top of the series) unless noted
Procedure, shortened: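 Laser-scanning cytometry quantifies lipid droplet accumulation (500–530 nm total intensity; droplet/cell object ratio) in oleic acid-fed (400 uM added) Drosophila S3 cells treated with a concentration series. 20 uM Triacsin C defined 100% inhibition.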
In the case of `O=C(NCC1CCCO1)c1cncc(Br)c1` (stereo unspecified), the Potency is reported as inconclusive: 29.1 µM [falling, single point]. For `CCC(C)c1ccccc1N1CC(C(=O)Nc2ccccc2N2CCCC2)CC1=O` (stereo unspecified), the lipid storage change, negative = inhibition was inconclusive: 11%. For `O=C(Nc1ccccc1)OCCN1CCN(Cc2ccccc2)CCC1=O`, the lipid storage change, negative = inhibition was inconclusive: 2.91%. In the case of `Cc1cccn2c(=O)c3cc(C(=O)N4CCCC(C)C4)sc3nc12` (stereo unspecified), the lipid storage change, negative = inhibition is reported as inconclusive: 37.6%. For `Cc1nccn1CCC(=O)O`, the lipid storage change, negative = inhibition was inconclusive: -6.29%. For `COc1ccc(C(=O)Nc2cccc(-c3csc(C)n3)c2)cc1S(=O)(=O)N1CCCC1`, the Potency was inconclusive: 7.31 µM [falling, full curve, poor fit]. With `Cc1cccc2cc(CN(CCCN3CCOCC3)Cc3nnnn3C(C)(C)C)c(=O)[nH]c12` the Potency was inconclusive: 0.164 µM [activator, full curve, poor fit]. For `COc1ccc(C2c3c(nc[nH]c3=O)Oc3nc[nH]c(=O)c32)cc1`, the lipid storage change, negative = inhibition was inconclusive: 3.48%. For `CS(=O)(=O)N(Cc1ccccc1)c1ccc(C(=O)NCc2ccccc2)cc1`, the lipid storage change, negative = inhibition was inconclusive: 20.9%. With `O=C(CN1C(=O)c2cccc3cccc1c23)N1CCN(Cc2ccc3c(c2)OCO3)CC1` the Potency was inconclusive: 10.3 µM [falling, partial curve]. For `COC(=O)c1ccc(NC(=O)C(=O)NCC2CCCO2)cc1` (stereo unspecified), the lipid storage change, negative = inhibition was inconclusive: 31.4%. For `CCOc1ccc(NC(=O)Nc2ccc3c(c2)CCC3)cc1`, the Potency was inconclusive: 20.6 µM [activator, partial curve]. In the case of `Cn1c(=O)c2sccc2n2c(CCCC(=O)Nc3ccc(F)cc3F)nnc12`, the Potency is reported as active: 9.2 µM. In the case of `COC(=O)N1CCN(c2ccc(C)cc2)C(C)C1` (stereo unspecified), the lipid storage change, negative = inhibition is reported as inconclusive: -24.4%. With `CCc1ccc(-c2nc(CSCC(=O)NCCCN3CCCC3=O)c(C)o2)cc1` the lipid storage change, negative = inhibition was inconclusive: 14.2%. With `COc1ccc(-n2c(C)cc(/C=C/c3nc(O)c([N+](=O)[O-])c(=O)[nH]3)c2C)cc1` the lipid storage change, negative = inhibition was inconclusive: -20.1%. With `O=C(c1cc(-c2ccc(Br)cc2)on1)N1CCCC1` the Potency was inconclusive: 0.259 µM [activator, partial curve]. In the case of `CC1CCc2nc(NC(=O)CSc3nc4ccccc4o3)sc2C1` (stereo unspecified), the lipid storage change, negative = inhibition is reported as inconclusive: 64%. With `CCOc1ccc(OCCC(=O)OCC(=O)NNC(=O)c2ccccc2)cc1` the lipid storage change, negative = inhibition was “inconclusive”. For `C=CCNC(=O)/C(C#N)=C/c1ccc2c(c1)OCCO2`, the lipid storage change, negative = inhibition was inconclusive: 12.9%. In the case of `CC(=O)Nc1ccc(NC2=C/C(=N/S(=O)(=O)c3cccs3)c3ccccc3C2=O)cc1`, the Potency is reported as inconclusive: 32.6 µM [falling, partial curve, poor fit]. In the case of `Cc1ccc(NC(=O)CCC(=O)N/N=C/c2ccc(O)cc2O)cc1`, the lipid storage change, negative = inhibition is reported as inconclusive: 60.6%. With `C[C@@H]1C[C@H]2[C@@H]3CCC4=CC(=O)C=C[C@]4(C)[C@@]3(F)[C@@H](O)C[C@]2(C)[C@@]1(O)C(=O)CO` the lipid storage change, negative = inhibition was inconclusive: -18.5%. With `CCOCCCNc1nc2c(c(=O)n(C)c(=O)n2C)n1CCCc1ccccc1` the lipid storage change, negative = inhibition was inconclusive: 44.1%. With `CC1CN(C(=O)COC(=O)c2ccc(F)cc2Cl)CC(C)O1` (stereo unspecified) the lipid storage change, negative = inhibition was inconclusive: -12.7%. For `COc1cc(OC)c2c(c1)C(=O)OC2`, the lipid storage change, negative = inhibition was inconclusive: 12.2%. With `N#CCCNC(=O)CCN1CCCCC1` the Potency was inconclusive: 0.092 µM [falling, full curve, poor fit]. In the case of `COc1ccc(NC(=O)CN(C)C(=O)c2c(C)nn(Cc3ccccc3)c2C)cc1`, the Potency is reported as inconclusive: 18.4 µM [activator, partial curve, poor fit]. For `CCn1c(-c2cc(-c3ccc(OC(C)C)cc3)nc3ccccc23)n[nH]c1=S`, the Potency was inconclusive: 2.31 µM [activator, partial curve]. In the case of `O=C1NC2(CCCCCC2)C(=O)N1Cc1ccccc1Br`, the Potency is reported as inconclusive: 16.4 µM [activator, partial curve, poor fit]. With `Cc1ncsc1C(=O)N1CCCC(C(=O)c2ccc3ccccc3c2)C1` (stereo unspecified) the lipid storage change, negative = inhibition was inconclusive: 21.2%. With `COc1c(Cl)cc(Cl)cc1CNCCO` the Potency was inconclusive: 6.51 µM [falling, partial curve, poor fit]. For `N#C/C(=C/c1ccccc1)C(=O)NCc1ccccc1`, the Potency was active: 2.59 µM. With `Cc1ccccc1C(=O)NCCCNC(=O)c1ccccn1` the lipid storage change, negative = inhibition was inconclusive: 13.6%. With `CCCCn1nnnc1SCC(=O)NCc1ccccc1` the lipid storage change, negative = inhibition was inconclusive: -6.2%. For `CCCCn1c(N)c(N(CCC(C)C)C(=O)c2ccc(C)c(S(=O)(=O)N3CCOCC3)c2)c(=O)[nH]c1=O`, the lipid storage change, negative = inhibition was inconclusive: -38.4% [at 0.0737 µM]. For `O=C(NC(=S)N1CCCc2ccccc21)c1ccc(Cl)cc1`, the lipid storage change, negative = inhibition was inconclusive: -13.3%. In the case of `Cc1cc(C)c2[nH]c(=O)c(CN(Cc3cccs3)C(=S)NCc3ccco3)cc2c1`, the Potency is reported as inconclusive: 0.651 µM [activator, full curve, poor fit]. In the case of `Cc1nnc(NC(=O)c2cccc(S(=O)(=O)N(C)c3cccc(Cl)c3)c2)s1`, the lipid storage change, negative = inhibition is reported as inconclusive: 15.9%. For `O=C(CCc1ccccc1)N1CCN(c2ccc([N+](=O)[O-])cc2)CC1`, the lipid storage change, negative = inhibition was inconclusive: 1.76%. In the case of `CNS(=O)(=O)c1cccc(C(=O)OCC(=O)c2cc(C)n(CC3CCCO3)c2C)c1` (stereo unspecified), the lipid storage change, negative = inhibition is reported as inconclusive: 10.9%. With `COc1ccc(Cl)cc1NC(=O)c1c(-c2ccccc2)noc1C` the Potency was inconclusive: 14.6 µM [activator, partial curve, poor fit]. In the case of `O=C(OCCN1C(=O)c2cccc3c(N4CCOCC4)ccc(c23)C1=O)c1ccc(Cl)cc1`, the lipid storage change, negative = inhibition is reported as inconclusive: -43.4%. With `O=C(N/N=C/c1ccc([N+](=O)[O-])o1)c1cn(-c2ccccc2)nc1-c1ccc(F)cc1` the lipid storage change, negative = inhibition was inconclusive: 11.6%. In the case of `O=C(Nc1ccc(N2CCOCC2)c(Cl)c1)c1ccco1`, the Potency is reported as inconclusive: 11.6 µM [falling, partial curve, poor fit]. In the case of `CCC(=O)NC(=S)Nc1ccccc1F`, the lipid storage change, negative = inhibition is reported as inconclusive: 10.2%. With `COc1cc(/C=C(\C#N)C(=O)NC2CCCCC2)ccc1OCc1ccc(C(=O)O)cc1` the Potency was inconclusive: 8.2 µM [falling, partial curve]. In the case of `COc1ccc(CC(=O)Oc2ccccc2[N+](=O)[O-])cc1`, the lipid storage change, negative = inhibition is reported as inconclusive: 33.9%. With `COc1ccc(-n2nc(C(=O)NCC3CCCO3)c3ccccc3c2=O)cc1` (stereo unspecified) the Potency was inconclusive: 29.1 µM [falling, single point]. In the case of `COc1ccccc1C(=O)Nc1ccc(Oc2ncnc3sc(-c4ccccc4)cc23)cc1`, the lipid storage change, negative = inhibition is reported as inconclusive: 38.2%. For `CN(C)CCCN(C(=O)c1ccc2c(c1)CCCC2)c1nc2ccc(F)cc2s1`, the Potency was inconclusive: 29.1 µM [cytotoxic, single point]. For `Cc1ccc(OCCn2cccn2)c(C)c1`, the lipid storage change, negative = inhibition was inconclusive: 15.8%. For `CCN(CC)c1nc(Nc2ccccc2)nc(Oc2ccc(=O)n(C)n2)n1`, the lipid storage change, negative = inhibition was inconclusive: 4.99%. With `CCC(CO)Oc1cc(NCc2ccc(OC)cc2)c2ncn(C(C)C)c2c1` (stereo unspecified) the lipid storage change, negative = inhibition was inconclusive: -31.7%. In the case of `O=C(NCc1ccc2c(c1)OCO2)C1CCC(CNc2c(N3CCCC3)c(=O)c2=O)CC1` (stereo unspecified), the lipid storage change, negative = inhibition is reported as inconclusive: 37.7%. In the case of `O=C(CCN1C(=O)CSC1=O)Nc1ccccc1`, the lipid storage change, negative = inhibition is reported as inconclusive: 9.72%. In the case of `COc1cc(CN2CC(=O)N(c3ccc(C)c(Cl)c3)C2=S)cc(OC)c1OC`, the lipid storage change, negative = inhibition is reported as inconclusive: 19.2%. In the case of `Cc1cc(C(=O)N2CCCC(Nc3ccc(F)cc3)C2)n(C)n1` (stereo unspecified), the Potency is reported as inconclusive: 0.103 µM [activator, full curve, poor fit]. For `CCCCN1C(=O)C(=O)N(CC(=O)Nc2sc(C)c(CC)c2C(=O)OCC)C1=O`, the lipid storage change, negative = inhibition was “inconclusive”. In the case of `COc1ccc(C(=O)O)cc1N1C(=O)Nc2ccccc2N1O`, the lipid storage change, negative = inhibition is reported as inconclusive: -59.8%. With `C=CCc1c(C)nc(SC(C)C)[nH]c1=O` the Potency was inconclusive: 0.0651 µM [falling, full curve, poor fit]. For `COc1ccc(-c2nnc3ccc(SCC(=O)NCc4ccco4)nn23)cc1OC`, the lipid storage change, negative = inhibition was inconclusive: -9.31%. In the case of `O=C(OCC(=O)N1CCN(c2ccccc2)CC1)c1ccccc1NCCO`, the lipid storage change, negative = inhibition is reported as inconclusive: 32.6%. With `Cc1c(NC(=S)NC(=O)C(c2ccccc2)c2ccccc2)cccc1C(=O)O` the lipid storage change, negative = inhibition was inconclusive: 16.7%. In the case of `COC(=O)c1cc(NC2c3ncccc3C(=O)N2Cc2ccccc2)cc(C(=O)OC)c1` (stereo unspecified), the Potency is reported as inconclusive: 0.58 µM [activator, full curve, poor fit]. With `N#Cc1nc(-c2ccccc2F)oc1NCCc1ccccc1` the lipid storage change, negative = inhibition was inconclusive: -17.3%. For `C/C(=N\NC(=O)c1ccccc1C)c1cccnc1`, the Potency was inconclusive: 20.6 µM [activator, single point]. With `CC(=O)c1cc(C)ccc1OC(=O)c1cccc2nc(C)oc12` the lipid storage change, negative = inhibition was inconclusive: 39.2%. In the case of `COc1ccc(C(=O)/C=C/c2ccc(N3CCCCC3)c([N+](=O)[O-])c2)cc1`, the Potency is reported as inconclusive: 29.1 µM [falling, single point]. For `Cc1ccc(NC(=S)N(CCCN2CCN(C)CC2)Cc2cccs2)cc1C`, the lipid storage change, negative = inhibition was inconclusive: 24.4%. With `CC(C)COc1cccc(C(=O)NC2(C)CCS(=O)(=O)C2)c1` (stereo unspecified) the lipid storage change, negative = inhibition was inconclusive: 16.2%. In the case of `CCn1c(SCC(=O)c2ccccc2)nnc1-c1cccs1`, the lipid storage change, negative = inhibition is reported as inconclusive: -38.7%. For `O=C(CCc1nnc2ccc(NCc3ccc(F)cc3)nn12)NC1CCCC1`, the lipid storage change, negative = inhibition was inconclusive: -44.1%. With `Cn1cc(Br)c(C(=O)NC(=S)Nc2ccc(S(N)(=O)=O)cc2)n1` the lipid storage change, negative = inhibition was inconclusive: 6.65%. With `Cc1c(-n2cc(C(=O)O)c(=O)c3cc(F)c(N4CCCC4)c(F)c32)c(=O)n(-c2ccccc2)n1C` the lipid storage change, negative = inhibition was inconclusive: 50.4%. With `CN(C1CCCC1)C1CCN(C(=O)CNC(=O)/C=C/c2cccc(C(F)(F)F)c2)CC1` the “lipid storage change, negative = inhibition” value was inactive: -1.31%.
